PubChem BioAssay AID1053208, Peter MacCallum Cancer Centre, 2014
Shown is an unselected part of about 17,000 reagents tested. 788 of them (4.7%) were called active. 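Calls rest on z-score classes alone; an extra cut-off of viability at most 70% of control was not applied to them.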 A number with no mark means an inactive call. Not all columns of the deposit are shown.

- Assay: 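Genes whose silencing cuts survival of bone tumour cells only with doxorubicin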 (primary screen)
- Cell system: mouse osteosarcoma cells, early-passage culture from an engineered mouse model of fibroblastic bone tumour
- Knock-down reagent: siRNA pool against mouse genes, 40 nM
- Time to read-out: about 120 h (48 h before drug, then 72 h with drug)
- Challenge: doxorubicin 100 nM for 72 h, roughly 30-40% inhibitory dose
- Detection: 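Viability read as ATP luminescence after 72 h of 100 nM doxorubicin or none, duplicate wells averaged, scaled to non-targeting siRNA, then expressed as robust z-scores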
- Reading the numbers: viability z-score with doxorubicin: higher = more viable cells under doxorubicin; viability z-score without drug: higher = more viable cells with knock-down alone
- Hit rule: 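a pool counts as active when its viability z-score with doxorubicin is -2 or below and its z-score without drug lies between -2 and 2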

Which result is listed for Pax2 (paired box 2)?
combined z-score class: no change with or without drug; viability z-score with doxorubicin: 0.67; viability z-score without drug: -0.51

Which result is listed for Znhit2 (zinc finger, HIT domain containing 2)?
combined z-score class: no change with or without drug; viability z-score with doxorubicin: 0; viability z-score without drug: -1.01

With Nfya (nuclear transcription factor-Y alpha), what was measured?
combined z-score class: no change with or without drug; viability z-score with doxorubicin: 1.35; viability z-score without drug: -0.51

Which result is listed for Sphk1 (sphingosine kinase 1)?
combined z-score class: no change with or without drug; viability z-score with doxorubicin: 1.46; viability z-score without drug: 1.52

For Pisd (phosphatidylserine decarboxylase), what does the deposit list?
combined z-score class: no change with or without drug; viability z-score with doxorubicin: -0.34; viability z-score without drug: 0.84

What is on record for Elavl2 (ELAV like RNA binding protein 2)?
combined z-score class: no change with or without drug; viability z-score with doxorubicin: 1.24; viability z-score without drug: 1.52

Which result is listed for BC011467?
combined z-score class: no change with or without drug; viability z-score with doxorubicin: 0.11; viability z-score without drug: -0.34

2 of these entries, reformatted:
target gene	combined z-score class	viability z-score with doxorubicin	viability z-score without drug
Znhit2 (zinc finger, HIT domain containing 2)	no change with or without drug	0	-1.01
Nfya (nuclear transcription factor-Y alpha)	no change with or without drug	1.35	-0.51

More reagents follow:
What did the screen give for Bpifb6 (BPI fold containing family B, member 6)?
combined z-score class: no change with or without drug; viability z-score with doxorubicin: -0.45; viability z-score without drug: -1.69

With Gpr153 (G protein-coupled receptor 153), what does the deposit list?
combined z-score class: no change with or without drug; viability z-score with doxorubicin: -0.56; viability z-score without drug: -0.34

How did the screen score Slc23a3?
combined z-score class: no change with or without drug; viability z-score with doxorubicin: -0.67; viability z-score without drug: -0.17

With Or13j1 (olfactory receptor family 13 subfamily J member 1), what does the deposit list?
combined z-score class: no change with or without drug; viability z-score with doxorubicin: -1.35; viability z-score without drug: 0.84

For Cdk5rap1 (CDK5 regulatory subunit associated protein 1), what was measured?
combined z-score class: no change with or without drug; viability z-score with doxorubicin: 1.57; viability z-score without drug: 0.17
